Article PMC3095566
Results are given in words; binding and its absence hold for the method and conditions named. Binding seen in cells or lysates may run through a third protein. These calls come from enrichment with a bait or labelling near it, and not all partners need be listed. Where a sequence is shown, tags or fusion partners need not be part of it.

Sequences of proteins named here, by UniProt entry; tags and fusion partners are left off. Residues count along the entry.
UniProt P62258: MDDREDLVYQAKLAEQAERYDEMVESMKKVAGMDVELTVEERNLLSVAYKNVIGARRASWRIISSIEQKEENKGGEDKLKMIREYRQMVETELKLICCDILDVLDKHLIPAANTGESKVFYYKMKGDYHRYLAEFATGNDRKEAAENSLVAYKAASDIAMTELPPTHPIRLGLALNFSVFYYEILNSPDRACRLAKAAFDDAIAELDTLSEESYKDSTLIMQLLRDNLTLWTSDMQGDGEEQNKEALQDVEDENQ
UniProt P10809, residues 27-573: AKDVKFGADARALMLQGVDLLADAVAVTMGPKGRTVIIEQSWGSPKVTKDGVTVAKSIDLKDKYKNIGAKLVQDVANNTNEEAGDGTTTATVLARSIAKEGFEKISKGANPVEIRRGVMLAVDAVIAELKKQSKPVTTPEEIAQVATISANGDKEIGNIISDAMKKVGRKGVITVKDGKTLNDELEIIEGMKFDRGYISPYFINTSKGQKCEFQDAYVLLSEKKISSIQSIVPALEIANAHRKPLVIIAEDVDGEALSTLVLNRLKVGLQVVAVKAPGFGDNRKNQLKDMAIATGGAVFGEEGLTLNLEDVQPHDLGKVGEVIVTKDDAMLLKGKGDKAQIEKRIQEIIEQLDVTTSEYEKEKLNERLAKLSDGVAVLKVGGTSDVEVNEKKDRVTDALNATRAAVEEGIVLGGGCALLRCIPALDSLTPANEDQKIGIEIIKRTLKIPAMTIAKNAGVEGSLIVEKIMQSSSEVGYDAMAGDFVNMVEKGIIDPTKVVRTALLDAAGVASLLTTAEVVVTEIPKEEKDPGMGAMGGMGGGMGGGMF
UniProt P11142: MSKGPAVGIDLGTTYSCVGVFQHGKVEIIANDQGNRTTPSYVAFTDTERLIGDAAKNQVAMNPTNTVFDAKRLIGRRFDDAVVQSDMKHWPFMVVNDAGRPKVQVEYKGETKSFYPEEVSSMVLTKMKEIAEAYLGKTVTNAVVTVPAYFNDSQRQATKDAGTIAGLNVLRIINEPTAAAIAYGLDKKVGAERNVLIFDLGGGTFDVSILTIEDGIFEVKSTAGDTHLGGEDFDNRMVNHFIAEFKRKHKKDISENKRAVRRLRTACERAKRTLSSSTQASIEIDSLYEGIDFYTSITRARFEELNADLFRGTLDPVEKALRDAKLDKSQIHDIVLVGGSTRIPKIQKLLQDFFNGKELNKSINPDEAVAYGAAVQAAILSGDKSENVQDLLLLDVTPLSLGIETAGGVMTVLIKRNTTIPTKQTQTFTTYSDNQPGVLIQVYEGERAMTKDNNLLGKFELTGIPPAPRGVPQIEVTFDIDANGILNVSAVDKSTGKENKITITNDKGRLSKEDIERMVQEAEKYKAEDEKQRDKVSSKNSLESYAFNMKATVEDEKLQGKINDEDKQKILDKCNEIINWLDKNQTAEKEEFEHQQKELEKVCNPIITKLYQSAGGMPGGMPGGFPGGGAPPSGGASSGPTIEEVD

T1: TAP-tagged Keratin 23 (UniProt Q9C075)
T1 sequence: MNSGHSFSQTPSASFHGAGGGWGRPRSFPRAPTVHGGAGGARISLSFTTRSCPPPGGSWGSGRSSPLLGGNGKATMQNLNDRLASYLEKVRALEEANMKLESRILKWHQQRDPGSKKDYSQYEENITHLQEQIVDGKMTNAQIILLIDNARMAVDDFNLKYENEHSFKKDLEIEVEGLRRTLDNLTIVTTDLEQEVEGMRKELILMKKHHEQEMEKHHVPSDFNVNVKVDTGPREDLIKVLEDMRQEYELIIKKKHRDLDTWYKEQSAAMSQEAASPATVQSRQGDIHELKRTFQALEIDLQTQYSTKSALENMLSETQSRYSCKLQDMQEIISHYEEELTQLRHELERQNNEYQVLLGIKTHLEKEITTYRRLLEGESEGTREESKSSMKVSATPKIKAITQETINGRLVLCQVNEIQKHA

B1: cytokeratin 18 (protein, UniProt P05783 1-430)
chain: MSFTTRSTFSTNYRSLGSVQAPSYGARPVSSAASVYAGAGGSGSRISVSRSTSFRGGMGSGGLATGIAGGLAGMGGIQNEKETMQSLNDRLASYLDRVRSLETENRRLESKIREHLEKKGPQVRDWSHYFKIIEDLRAQIFANTVDNARIVLQIDNARLAADDFRVKYETELAMRQSVENDIHGLRKVIDDTNITRLQLETEIEALKEELLFMKKNHEEEVKGLQAQIASSGLTVEVDAPKSQDLAKIMADIRAQYDELARKNREELDKYWSQQIEESTTVVTTQSAEVGAAETTLTELRRTVQSLEIDLDSMRNLKASLENSLREVEARYALQMEQLNGILLHLESELAQTRAEGQRQAQEYEALLNIKVKLEAEIATYRRLLEDGEDFNLGDALDSSNSMQTIQKTTTRRIVDGKVVSETNDTKVLRH
B2: 14-3-3γ (endogenous) (protein, UniProt P61981 1-247)
chain: MVDREQLVQKARLAEQAERYDDMAAAMKNVTELNEPLSNEERNLLSVAYKNVVGARRSSWRVISSIEQKTSADGNEKKIEMVRAYREKIEKELEAVCQDVLSLLDNYLIKNCSETQYESKVFYLKMKGDYYRYLAEVATGEKRATVVESSEKAYSEAHEISKEHMQPTHPIRLGLALNYSVFYYEIQNAPEQACHLAKTAFDDAIAELDTLNEDSYKDSTLIMQLLRDNLTLWTSDQQDDDGGEGNN

molecular target: T1, TAP-tagged Keratin 23; experiment: affinity purification with mass spectrometry; tandem affinity purification of TAP-KRT23 from lysates of stably transduced Smad4 re-expressing and Smad4 negative SW480 cells (50 mM Tris pH 7.4, 150 mM NaCl, 5 mM EDTA, 1 mM DTT, 2% Triton X-100): IgG-Sepharose, TEV cleavage, ANTI-FLAG M2-Agarose; eluate on SDS-PAGE, silver stain, bands identified by nanoLC-MS/MS

binding, binds:
14-3-3ε (endogenous) (from UniProt P62258 1-255)
HSP60 (from UniProt P10809 27-573)
HSP70 (from UniProt P11142 1-646)
B1
B2
